Where two headings read alike, the source gives them in different places. Some entries repeat one wording, which the source may state once for all of them.
Experiments:
[1] = Melamine formaldehyde PMC leakage; conditions: for Comment Code: Melamine formaldehyde PMC leakage: code letter J
[2] = Melamine formaldehyde PMC Headspace Response Ratio; conditions: for Comment Code: Melamine formaldehyde PMC Headspace Response Ratio: code letter I
[3] = class code letter within Comment Code

| Structure (SMILES) | Melamine formaldehyde PMC leakage (Comment Code J) [1, 3] | Melamine formaldehyde PMC Headspace Response Ratio (Comment Code I) [2, 3] | Melamine formaldehyde PMC leakage (Comment Code J) [1] | Comment Code: Melamine formaldehyde PMC leakage [1] | Melamine formaldehyde PMC Headspace Response Ratio (Comment Code I) [2] | Comment Code: Melamine formaldehyde PMC Headspace Response Ratio [2] |
| --- | --- | --- | --- | --- | --- | --- |
| CCC(=O)OC1CC2CCC1(C)C2(C)C (stereo not shown) [Material 228] | J (Melamine formaldehyde PMC leakage less than or equal to 5%) | I (Melamine formaldehyde PMC Headspace Response Ratio greater than or equal to 10) |  |  |  |  |
| CC(C)C(=O)OC1CC2CCC1(C)C2(C)C (stereo not shown) [Material 603] |  |  | J (Melamine formaldehyde PMC leakage less than or equal to 5%) | J (Melamine formaldehyde PMC leakage less than or equal to 5%) | I (Melamine formaldehyde PMC Headspace Response Ratio greater than or equal to 10) | I (Melamine formaldehyde PMC Headspace Response Ratio greater than or equal to 10) |
| CCCCCCCCCO [Material 49] | J (Melamine formaldehyde PMC leakage less than or equal to 5%) | I (Melamine formaldehyde PMC Headspace Response Ratio greater than or equal to 10) |  |  |  |  |
| CC(C)CCCC(C)CCO (stereo not shown) [Material 820] |  |  |  | J (Melamine formaldehyde PMC leakage less than or equal to 5%) |  | I (Melamine formaldehyde PMC Headspace Response Ratio greater than or equal to 10) |
| CC(C)(C)C1CCCCC1O (stereo not shown) [Material 1122] |  |  |  | J (Melamine formaldehyde PMC leakage less than or equal to 5%) |  | I (Melamine formaldehyde PMC Headspace Response Ratio greater than or equal to 10) |
| CC(C)CC=C(C=O)C(C)C [Material 847] |  |  |  | J (Melamine formaldehyde PMC leakage less than or equal to 5%) |  | I (Melamine formaldehyde PMC Headspace Response Ratio greater than or equal to 10) |
| C=C(C)C1CCC(C)CC1O (stereo not shown) [Material 193] | J (Melamine formaldehyde PMC leakage less than or equal to 5%) | I (Melamine formaldehyde PMC Headspace Response Ratio greater than or equal to 10) |  |  |  |  |
| C=CC(C)(CCC=C(C)C)OC (stereo not shown) [Material 24] |  |  |  | J (Melamine formaldehyde PMC leakage less than or equal to 5%) |  | I (Melamine formaldehyde PMC Headspace Response Ratio greater than or equal to 10) |
| C=CC(=C)CCCC(C)(C)O [Material 34] | J (Melamine formaldehyde PMC leakage less than or equal to 5%) | I (Melamine formaldehyde PMC Headspace Response Ratio greater than or equal to 10) |  |  |  |  |
| C=CC(C)=CCCC(C)(C)O [Material 43] | J (Melamine formaldehyde PMC leakage less than or equal to 5%) | I (Melamine formaldehyde PMC Headspace Response Ratio greater than or equal to 10) |  |  |  |  |
| CC(C)c1ccc(CO)cc1 [Material 491] | J (Melamine formaldehyde PMC leakage less than or equal to 5%) | I (Melamine formaldehyde PMC Headspace Response Ratio greater than or equal to 10) |  |  |  |  |
| C=C(C)C1CCC(C)C(=O)C1 (stereo not shown) [Material 419] |  |  |  | J (Melamine formaldehyde PMC leakage less than or equal to 5%) |  | I (Melamine formaldehyde PMC Headspace Response Ratio greater than or equal to 10) |
| C=C(C)C1CC=C(C)C(=O)C1 (stereo not shown) [Material 902] |  |  |  | J (Melamine formaldehyde PMC leakage less than or equal to 5%) |  | I (Melamine formaldehyde PMC Headspace Response Ratio greater than or equal to 10) |
| CC(C)(C)[C@@H]1CCCC[C@H]1O (relative stereo) [Material 1071] |  |  |  | J (Melamine formaldehyde PMC leakage less than or equal to 5%) |  | I (Melamine formaldehyde PMC Headspace Response Ratio greater than or equal to 10) |
| C=C1C(O)CC2(C(C)C)CC12 (stereo not shown) [Material 1020] |  |  | J (Melamine formaldehyde PMC leakage less than or equal to 5%) |  | I (Melamine formaldehyde PMC Headspace Response Ratio greater than or equal to 10) |  |
| CC1=CC(=O)[C@@H]2C[C@H]1C2(C)C [Material 1119] |  |  |  | J (Melamine formaldehyde PMC leakage less than or equal to 5%) |  | I (Melamine formaldehyde PMC Headspace Response Ratio greater than or equal to 10) |
| CC(C)C(=O)OC1CC2CCC1(C)C2(C)C (stereo not shown) [Material 229] | J (Melamine formaldehyde PMC leakage less than or equal to 5%) | I (Melamine formaldehyde PMC Headspace Response Ratio greater than or equal to 10) |  | J (Melamine formaldehyde PMC leakage less than or equal to 5%) |  | I (Melamine formaldehyde PMC Headspace Response Ratio greater than or equal to 10) |

| Structure (SMILES) | Melamine formaldehyde PMC leakage (Comment Code J) [1, 3] | Melamine formaldehyde PMC Headspace Response Ratio (Comment Code I) [2, 3] | Melamine formaldehyde PMC leakage (Comment Code J) [1] | Comment Code: Melamine formaldehyde PMC leakage [1] | Melamine formaldehyde PMC Headspace Response Ratio (Comment Code I) [2] | Comment Code: Melamine formaldehyde PMC Headspace Response Ratio [2] |
| --- | --- | --- | --- | --- | --- | --- |
| CC(C)C1=CCC(C)(O)CC1 (stereo not shown) [Material 982] |  |  | J (Melamine formaldehyde PMC leakage less than or equal to 5%) |  | I (Melamine formaldehyde PMC Headspace Response Ratio greater than or equal to 10) |  |
| CC1=CC(=O)C2CC1C2(C)C (stereo not shown) [Material 883] |  |  |  | J (Melamine formaldehyde PMC leakage less than or equal to 5%) |  | I (Melamine formaldehyde PMC Headspace Response Ratio greater than or equal to 10) |
| CC1CCC2CC1C2(C)C (stereo not shown) [Material 525] |  |  |  | J (Melamine formaldehyde PMC leakage less than or equal to 5%) |  | I (Melamine formaldehyde PMC Headspace Response Ratio greater than or equal to 10) |
| C=C(C)C1CCC(C)C(=O)C1 (stereo not shown) [Material 443] |  |  |  | J (Melamine formaldehyde PMC leakage less than or equal to 5%) |  | I (Melamine formaldehyde PMC Headspace Response Ratio greater than or equal to 10) |
| C=C(C)C1CC=C(C)C(=O)C1 (stereo not shown) [Material 576] |  |  |  | J (Melamine formaldehyde PMC leakage less than or equal to 5%) |  | I (Melamine formaldehyde PMC Headspace Response Ratio greater than or equal to 10) |
| CC(C)[C@@]12CC(=O)[C@H](C)[C@@H]1C2 [Material 683] |  |  | J (Melamine formaldehyde PMC leakage less than or equal to 5%) |  | I (Melamine formaldehyde PMC Headspace Response Ratio greater than or equal to 10) |  |
| CCC(C)CC(CC)CCCC(C)O (stereo not shown) [Material 779] |  |  |  | J (Melamine formaldehyde PMC leakage less than or equal to 5%) |  | I (Melamine formaldehyde PMC Headspace Response Ratio greater than or equal to 10) |
| O=CC(O)C(O)C(O)CO (stereo not shown) [Material 417] | J (Melamine formaldehyde PMC leakage less than or equal to 5%) | I (Melamine formaldehyde PMC Headspace Response Ratio greater than or equal to 10) |  |  |  |  |
| O=CC1CCC2C3CCC(C3)C12 (stereo not shown) [Material 130] | J (Melamine formaldehyde PMC leakage less than or equal to 5%) | I (Melamine formaldehyde PMC Headspace Response Ratio greater than or equal to 10) |  |  |  |  |
| COC(C)(C)C1CC=C(C)CC1 (stereo not shown) [Material 20] |  |  |  | J (Melamine formaldehyde PMC leakage less than or equal to 5%) |  | I (Melamine formaldehyde PMC Headspace Response Ratio greater than or equal to 10) |
| C=CC(C)CC(=O)CC(C)C (stereo not shown) [Material 436] | J (Melamine formaldehyde PMC leakage less than or equal to 5%) | I (Melamine formaldehyde PMC Headspace Response Ratio greater than or equal to 10) |  |  |  |  |
| CC(C)C1CCC(CO)CC1 (stereo not shown) [Material 133] |  |  |  | J (Melamine formaldehyde PMC leakage less than or equal to 5%) |  | I (Melamine formaldehyde PMC Headspace Response Ratio greater than or equal to 10) |
| C=C1C(O)CC2CC1C2(C)C (stereo not shown) [Material 974] |  |  | J (Melamine formaldehyde PMC leakage less than or equal to 5%) |  | I (Melamine formaldehyde PMC Headspace Response Ratio greater than or equal to 10) |  |
| CC(C)C12CCC(C)(O)C1C2 (stereo not shown) [Material 1019] |  |  |  | J (Melamine formaldehyde PMC leakage less than or equal to 5%) |  | I (Melamine formaldehyde PMC Headspace Response Ratio greater than or equal to 10) |
| CC(CCO)CCCC(C)(C)O (stereo not shown) [Material 249] | J (Melamine formaldehyde PMC leakage less than or equal to 5%) | I (Melamine formaldehyde PMC Headspace Response Ratio greater than or equal to 10) |  |  |  |  |
| CCCCCC(C#N)CCC (stereo not shown) [Material 186] | J (Melamine formaldehyde PMC leakage less than or equal to 5%) | I (Melamine formaldehyde PMC Headspace Response Ratio greater than or equal to 10) |  |  |  |  |

From patent publication US20160090556A1, “PRODUCTS COMPRISING MALODOR REDUCTION MATERIALS” (The Procter & Gamble Company, priority 2014, published 2016)
